These are yes or no findings as the source states them, for the method shown. Binding seen in cells or lysates may run through a third protein.
How the values were obtained:
[1] = biological target: E3 ubiquitin-protein ligase SMURF1, endogenous in mouse primary myoblasts (mouse (endogenous in primary myoblasts)) (UniProt Q9CUN6); test: co-IP; reciprocal co-immunoprecipitation of endogenous proteins with SMURF1 or FTH1 antibody or control IgG, protein A/G plus-agarose, lysate of primary myoblasts cultured 4 days in differentiation medium, immunoblot
[2] = biological target: Ferritin heavy chain 1 (FTH1), endogenous in mouse primary myoblasts (mouse (endogenous in primary myoblasts)) (UniProt P09528); test: as above

Chains of the proteins cited; added tags and fusions are not shown.
UniProt Q9CUN6: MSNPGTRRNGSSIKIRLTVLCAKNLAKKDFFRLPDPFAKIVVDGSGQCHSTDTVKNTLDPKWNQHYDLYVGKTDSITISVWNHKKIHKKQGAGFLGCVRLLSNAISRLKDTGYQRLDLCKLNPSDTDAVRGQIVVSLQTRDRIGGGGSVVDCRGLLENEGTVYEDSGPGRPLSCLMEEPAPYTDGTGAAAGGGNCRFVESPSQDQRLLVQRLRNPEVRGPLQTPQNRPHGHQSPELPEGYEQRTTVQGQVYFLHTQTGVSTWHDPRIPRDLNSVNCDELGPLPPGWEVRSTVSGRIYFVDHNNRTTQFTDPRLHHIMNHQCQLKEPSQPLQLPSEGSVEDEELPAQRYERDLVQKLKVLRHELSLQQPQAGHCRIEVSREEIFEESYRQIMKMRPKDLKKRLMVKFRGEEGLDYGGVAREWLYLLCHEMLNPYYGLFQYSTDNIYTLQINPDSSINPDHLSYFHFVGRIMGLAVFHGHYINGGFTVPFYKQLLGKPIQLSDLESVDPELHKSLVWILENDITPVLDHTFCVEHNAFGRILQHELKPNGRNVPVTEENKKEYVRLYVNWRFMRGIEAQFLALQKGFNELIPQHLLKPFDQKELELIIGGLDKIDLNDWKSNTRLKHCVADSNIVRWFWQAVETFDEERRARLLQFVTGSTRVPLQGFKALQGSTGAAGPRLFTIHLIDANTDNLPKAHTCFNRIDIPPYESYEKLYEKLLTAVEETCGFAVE
UniProt P09528: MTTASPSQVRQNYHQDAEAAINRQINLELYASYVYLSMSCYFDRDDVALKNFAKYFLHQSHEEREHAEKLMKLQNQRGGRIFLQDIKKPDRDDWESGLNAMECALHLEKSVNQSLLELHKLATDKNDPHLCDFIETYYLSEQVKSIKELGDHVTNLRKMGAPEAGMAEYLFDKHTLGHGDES

binding [1]: no binding
binding [2]: no binding
B1: Atrogin1, endogenous in mouse primary myoblasts (protein, UniProt Q9CPU7 1-355)
chain: MPFLGQDWRSPGQSWVKTADGWKRFLDEKSGSFVSDLSSYCNKEVYSKENLFSSLNYDVAAKKRKKDIQNSKTKTQYFHQEKWIYVHKGSTKERHGYCTLGEAFNRLDFSTAILDSRRFNYVVRLLELIAKSQLTSLSGIAQKNFMNILEKVVLKVLEDQQNIRLIRELLQTLYTSLCTLVQRVGKSVLVGNINMWVYRMETILHWQQQLNSIQISRPAFKGLTITDLPVCLQLNIMQRLSDGRDLVSLGQAAPDLHVLSEDRLLWKRLCQYHFSERQIRKRLILSDKGQLDWKKMYFKLVRCYPRREQYGVTLQLCKHCHILSWKGTDHPCTANNPESCSVSLSPQDFINLFKF
